According to patent US11952431B2, “Neutrophil-binding peptides” (YISSUM RESEARCH DEVELOPMENT COMPANY OF THE HEBREW …, priority 2020, dated 2024):

System: mouse and human CD177
Assay: Cross binding of 16-LQI and 16-KFP
Settings: see FIG. 2D, 16-Cont.

Row | Substance | cross binding between mouse and human
1 | 16-LQI: LQI tetramer-streptavidin (SA) complex, a 16-mer of the LQI-peptide [Peptide 16-LQI] | do not cross bind
2 | 16-KFP: biotinylated KFP-tetramer multiantigen generated in the same manner as 16-LQI; tetramer-SA complex used as control on murine neutrophils [Peptide 16-KFP] | do not cross bind
